# Like-named read-outs stand apart in the source and are kept apart here. Results are given in words; binding and its absence hold for the method and conditions named. For part of these data: In cells and extracts the contact can be indirect. Some results given as binding are weak or reduced against the parent protein; the word gives no strength. Tags and fused reporters may be left off the sequences shown.
# By UniProt entry, the sequences of proteins in these tests, tags left out.
# UniProt Q39026: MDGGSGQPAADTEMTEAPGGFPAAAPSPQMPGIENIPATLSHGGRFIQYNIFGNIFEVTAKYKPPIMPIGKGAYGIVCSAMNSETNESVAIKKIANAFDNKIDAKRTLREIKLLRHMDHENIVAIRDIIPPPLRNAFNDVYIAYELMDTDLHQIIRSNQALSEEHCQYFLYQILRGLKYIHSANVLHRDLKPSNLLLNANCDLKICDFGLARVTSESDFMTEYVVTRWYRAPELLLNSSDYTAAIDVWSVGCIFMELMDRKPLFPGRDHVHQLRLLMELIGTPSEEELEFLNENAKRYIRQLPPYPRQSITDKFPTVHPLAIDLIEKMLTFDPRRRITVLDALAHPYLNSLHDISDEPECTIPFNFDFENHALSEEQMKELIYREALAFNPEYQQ
# T1: MAX2, BiFC fusion (Arabidopsis thaliana) (UniProt Q9SIM9)
# T1 sequence: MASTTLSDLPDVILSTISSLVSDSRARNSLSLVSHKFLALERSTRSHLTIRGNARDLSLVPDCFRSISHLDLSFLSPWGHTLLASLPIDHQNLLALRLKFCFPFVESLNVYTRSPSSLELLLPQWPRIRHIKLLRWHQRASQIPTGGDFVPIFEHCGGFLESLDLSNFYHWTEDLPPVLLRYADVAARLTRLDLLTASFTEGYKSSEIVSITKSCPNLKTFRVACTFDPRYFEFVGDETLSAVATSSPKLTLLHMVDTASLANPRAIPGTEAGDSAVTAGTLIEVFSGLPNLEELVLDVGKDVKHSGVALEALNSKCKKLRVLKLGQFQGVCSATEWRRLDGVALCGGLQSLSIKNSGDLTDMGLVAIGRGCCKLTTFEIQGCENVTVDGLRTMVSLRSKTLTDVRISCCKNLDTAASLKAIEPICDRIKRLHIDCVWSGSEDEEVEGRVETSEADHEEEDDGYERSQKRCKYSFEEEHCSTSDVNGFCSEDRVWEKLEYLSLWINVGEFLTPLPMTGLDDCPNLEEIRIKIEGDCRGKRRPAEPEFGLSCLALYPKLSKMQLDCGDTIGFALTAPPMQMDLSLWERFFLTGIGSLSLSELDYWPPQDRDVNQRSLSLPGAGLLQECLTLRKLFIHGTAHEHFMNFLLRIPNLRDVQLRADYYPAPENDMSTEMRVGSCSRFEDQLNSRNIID
# T2: MORE AXILLARY GROWTH2 (MAX2), yeast two-hybrid fusion (Arabidopsis thaliana) (UniProt Q9SIM9)
# T2 sequence: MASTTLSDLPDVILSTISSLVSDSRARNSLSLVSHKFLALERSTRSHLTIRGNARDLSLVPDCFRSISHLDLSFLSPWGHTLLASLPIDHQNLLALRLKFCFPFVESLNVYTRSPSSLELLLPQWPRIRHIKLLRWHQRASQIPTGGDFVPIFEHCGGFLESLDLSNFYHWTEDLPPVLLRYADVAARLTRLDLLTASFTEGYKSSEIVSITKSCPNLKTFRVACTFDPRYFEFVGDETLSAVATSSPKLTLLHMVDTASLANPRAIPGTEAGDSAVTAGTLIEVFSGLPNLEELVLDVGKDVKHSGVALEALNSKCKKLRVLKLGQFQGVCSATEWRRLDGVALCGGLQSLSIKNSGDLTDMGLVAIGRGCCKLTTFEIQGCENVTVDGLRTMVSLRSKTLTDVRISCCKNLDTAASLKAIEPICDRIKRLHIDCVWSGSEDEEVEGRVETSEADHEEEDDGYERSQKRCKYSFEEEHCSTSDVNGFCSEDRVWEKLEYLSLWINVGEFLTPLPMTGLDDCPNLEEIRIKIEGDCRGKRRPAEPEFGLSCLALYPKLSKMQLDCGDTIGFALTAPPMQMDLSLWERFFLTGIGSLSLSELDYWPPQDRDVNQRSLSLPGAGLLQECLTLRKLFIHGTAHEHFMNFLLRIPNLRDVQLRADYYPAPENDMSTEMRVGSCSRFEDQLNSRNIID
# T3: MPK3, yeast two-hybrid fusion (Arabidopsis thaliana) (UniProt Q39023)
# T3 sequence: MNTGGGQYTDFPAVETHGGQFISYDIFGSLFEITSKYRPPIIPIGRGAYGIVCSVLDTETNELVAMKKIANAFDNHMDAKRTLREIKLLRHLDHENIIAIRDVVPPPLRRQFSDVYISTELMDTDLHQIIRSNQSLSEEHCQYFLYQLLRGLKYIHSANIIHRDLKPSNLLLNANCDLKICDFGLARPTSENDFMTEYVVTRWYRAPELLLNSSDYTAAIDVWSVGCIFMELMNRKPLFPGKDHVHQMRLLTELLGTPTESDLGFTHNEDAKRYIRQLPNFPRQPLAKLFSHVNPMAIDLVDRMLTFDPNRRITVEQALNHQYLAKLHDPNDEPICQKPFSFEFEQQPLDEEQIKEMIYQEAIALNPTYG
# T4: MAX2-Myc (MAX2-10xMyc) from transgenic Arabidopsis (Arabidopsis thaliana) (UniProt Q9SIM9)
# T4 sequence: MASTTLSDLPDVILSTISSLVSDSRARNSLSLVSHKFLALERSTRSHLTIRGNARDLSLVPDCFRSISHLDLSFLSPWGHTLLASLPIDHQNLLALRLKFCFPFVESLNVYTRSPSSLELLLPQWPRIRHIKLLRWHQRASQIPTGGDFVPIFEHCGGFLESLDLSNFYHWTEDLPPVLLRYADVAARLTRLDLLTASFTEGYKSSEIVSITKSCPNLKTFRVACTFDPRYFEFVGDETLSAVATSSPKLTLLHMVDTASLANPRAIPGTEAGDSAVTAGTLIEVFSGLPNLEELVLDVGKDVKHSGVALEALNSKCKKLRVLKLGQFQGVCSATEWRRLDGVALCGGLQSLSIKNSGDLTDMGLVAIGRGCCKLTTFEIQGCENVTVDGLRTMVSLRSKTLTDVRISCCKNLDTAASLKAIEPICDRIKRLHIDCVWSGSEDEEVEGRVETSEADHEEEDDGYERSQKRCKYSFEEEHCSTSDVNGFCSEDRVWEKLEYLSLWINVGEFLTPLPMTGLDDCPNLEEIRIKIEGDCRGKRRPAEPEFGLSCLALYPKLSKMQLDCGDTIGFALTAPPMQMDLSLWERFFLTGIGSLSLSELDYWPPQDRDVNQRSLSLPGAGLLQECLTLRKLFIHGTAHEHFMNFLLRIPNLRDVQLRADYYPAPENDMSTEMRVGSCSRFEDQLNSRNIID
# Experiments:
# [1] = biological target: T1, MAX2, BiFC fusion (Arabidopsis thaliana); assay: split reporter
# [2] = biological target: T1, MAX2, BiFC fusion (Arabidopsis thaliana); assay: split reporter; remark: listed apart in the source
# [3] = biological target: T2, MORE AXILLARY GROWTH2 (MAX2), yeast two-hybrid fusion (Arabidopsis thaliana); assay: two-hybrid
# [4] = biological target: MPK6, yeast two-hybrid fusion (Arabidopsis thaliana) (UniProt Q39026); assay: two-hybrid
# [5] = biological target: T3, MPK3, yeast two-hybrid fusion (Arabidopsis thaliana); assay: two-hybrid
# [6] = biological target: T4, MAX2-Myc (MAX2-10xMyc) from transgenic Arabidopsis (Arabidopsis thaliana); assay: co-IP
molecule,measurement,setting,value
"BRC1^S34D,S65D (phospho-mimic), BiFC fusion (from UniProt A1YKT1 1-433)",binding,[1],no binding
"BRC1^S34A,S65A (phospho-dead), BiFC fusion (from UniProt A1YKT1 1-433)",binding,[1],binds
"BRC1-EYFP^C (BiFC fusion) (protein, UniProt A1YKT1 1-433) MNNNIFSTTTTINDDYMLFPYNDHYSSQPLLPFSPSSSINDILIHSTSNTSNNHLDHHHQFQQPSPFSHFEFAPDCALLTSFHPENNGHDDNQTIPNDNHHPSLHFPLNNTIVEQPTEPSETINLIEDSQRISTSQDPKMKKAKKPSRTDRHSKIKTAKGTRDRRMRLSLDVAKELFGLQDMLGFDKASKTVEWLLTQAKPEIIKIATTLSHHGCFSSGDESHIRPVLGSMDTSSDLCELASMWTVDDRGSNTNTTETRGNKVDGRSMRGKRKRPEPRTPILKKLSKEERAKARERAKGRTMEKMMMKMKGRSQLVKVVEEDAHDHGEIIKNNNRSQVNRSSFEMTHCEDKIEELCKNDRFAVCNEFIMNKKDHISNESYDLVNYKPNSSFPVINHHRSQGAANSIEQHQFTDLHYSFGAKPRDLMHNYQNMY",binding,[2],binds
"BRC1^S34A,S65A (phospho-dead), yeast two-hybrid fusion (protein, UniProt A1YKT1 1-433) MNNNIFSTTTTINDDYMLFPYNDHYSSQPLLPFAPSSSINDILIHSTSNTSNNHLDHHHQFQQPAPFSHFEFAPDCALLTSFHPENNGHDDNQTIPNDNHHPSLHFPLNNTIVEQPTEPSETINLIEDSQRISTSQDPKMKKAKKPSRTDRHSKIKTAKGTRDRRMRLSLDVAKELFGLQDMLGFDKASKTVEWLLTQAKPEIIKIATTLSHHGCFSSGDESHIRPVLGSMDTSSDLCELASMWTVDDRGSNTNTTETRGNKVDGRSMRGKRKRPEPRTPILKKLSKEERAKARERAKGRTMEKMMMKMKGRSQLVKVVEEDAHDHGEIIKNNNRSQVNRSSFEMTHCEDKIEELCKNDRFAVCNEFIMNKKDHISNESYDLVNYKPNSSFPVINHHRSQGAANSIEQHQFTDLHYSFGAKPRDLMHNYQNMY",binding,[3],binds
"BRANCHED1 (BRC1), yeast two-hybrid fusion (protein, UniProt A1YKT1 1-433) MNNNIFSTTTTINDDYMLFPYNDHYSSQPLLPFSPSSSINDILIHSTSNTSNNHLDHHHQFQQPSPFSHFEFAPDCALLTSFHPENNGHDDNQTIPNDNHHPSLHFPLNNTIVEQPTEPSETINLIEDSQRISTSQDPKMKKAKKPSRTDRHSKIKTAKGTRDRRMRLSLDVAKELFGLQDMLGFDKASKTVEWLLTQAKPEIIKIATTLSHHGCFSSGDESHIRPVLGSMDTSSDLCELASMWTVDDRGSNTNTTETRGNKVDGRSMRGKRKRPEPRTPILKKLSKEERAKARERAKGRTMEKMMMKMKGRSQLVKVVEEDAHDHGEIIKNNNRSQVNRSSFEMTHCEDKIEELCKNDRFAVCNEFIMNKKDHISNESYDLVNYKPNSSFPVINHHRSQGAANSIEQHQFTDLHYSFGAKPRDLMHNYQNMY",binding,[4],no binding
same,binding,[5],no binding
same,binding,[3],binds
"BRC1-HA (BRC1-3xHA) from transgenic Arabidopsis (protein, UniProt A1YKT1 1-433) MNNNIFSTTTTINDDYMLFPYNDHYSSQPLLPFSPSSSINDILIHSTSNTSNNHLDHHHQFQQPSPFSHFEFAPDCALLTSFHPENNGHDDNQTIPNDNHHPSLHFPLNNTIVEQPTEPSETINLIEDSQRISTSQDPKMKKAKKPSRTDRHSKIKTAKGTRDRRMRLSLDVAKELFGLQDMLGFDKASKTVEWLLTQAKPEIIKIATTLSHHGCFSSGDESHIRPVLGSMDTSSDLCELASMWTVDDRGSNTNTTETRGNKVDGRSMRGKRKRPEPRTPILKKLSKEERAKARERAKGRTMEKMMMKMKGRSQLVKVVEEDAHDHGEIIKNNNRSQVNRSSFEMTHCEDKIEELCKNDRFAVCNEFIMNKKDHISNESYDLVNYKPNSSFPVINHHRSQGAANSIEQHQFTDLHYSFGAKPRDLMHNYQNMY",binding,[6],binds
"BRC1^S34D,S65D (phospho-mimic), yeast two-hybrid fusion (protein, UniProt A1YKT1 1-433) MNNNIFSTTTTINDDYMLFPYNDHYSSQPLLPFDPSSSINDILIHSTSNTSNNHLDHHHQFQQPDPFSHFEFAPDCALLTSFHPENNGHDDNQTIPNDNHHPSLHFPLNNTIVEQPTEPSETINLIEDSQRISTSQDPKMKKAKKPSRTDRHSKIKTAKGTRDRRMRLSLDVAKELFGLQDMLGFDKASKTVEWLLTQAKPEIIKIATTLSHHGCFSSGDESHIRPVLGSMDTSSDLCELASMWTVDDRGSNTNTTETRGNKVDGRSMRGKRKRPEPRTPILKKLSKEERAKARERAKGRTMEKMMMKMKGRSQLVKVVEEDAHDHGEIIKNNNRSQVNRSSFEMTHCEDKIEELCKNDRFAVCNEFIMNKKDHISNESYDLVNYKPNSSFPVINHHRSQGAANSIEQHQFTDLHYSFGAKPRDLMHNYQNMY",binding,[3],no binding

# Source: paper doi:10.1101/2025.08.27.672522
